# Reference: PubChem BioAssay AID2685 (National Center for Advancing Translational Sciences (NCATS), 2010)
# The list shows a part of the results. Shown are side measurements of this screen, not its main read-out; they come without a call. The list favours compounds with an active or inconclusive main result. The note in brackets gives the kind of curve behind each potency; many fits are weak.
# Assay: qHTS Assay for Lipid Storage Modulators in Drosophila S3 Cells;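 for cell number change: cells counted by Cell Tracker Red CMTPX staining in the red channel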
# Settings: BODIPY lipid droplet fluorescence, 18-24 h; for cell number change: measured here: cell count max response, cells fed with added oleic acid
# Summary of the method: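 Laser-scanning cytometry quantifies lipid droplet accumulation (500–530 nm total intensity; droplet/cell object ratio) in oleic acid-fed (400 uM added) Drosophila S3 cells treated with a concentration series. 20 uM Triacsin C defined 100% inhibition.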
# [1] = measured here: cell number channel AC50, cells fed with added oleic acid
# [2] = measured here: lipid fluorescence (Fed channel) AC50, cells fed with added oleic acid
Structure (SMILES),cell number change [%],AC50 [1],AC50 [2]
Cc1csc2c(N3CCCCC3)ncnc12,21.3,"0.291 µM [rising, partial curve, poor fit]","0.164 µM [rising, full curve, poor fit]"
O=C(OCC(=O)c1ccc(Cl)s1)c1ccc(CO)cc1,3.96,,"29.1 µM [rising, single point]"
COc1ccc(N(CC(=O)Nc2cccc(C(F)(F)F)c2)S(C)(=O)=O)cc1,-23.3,,"18.4 µM [falling, single point]"
COc1ccc(S(=O)(=O)NCCSCc2ccccc2C)cc1Br,-0.153,,
COc1ccc(C(=O)N(C)C2CCCN(Cc3ccccc3F)C2)cc1C (stereo not drawn),9.89,,
CCC(=O)c1ccc(OCC(=O)OC(C)C(=O)NCc2ccc3c(c2)OCO3)cc1 (stereo not drawn),12.9,,
COc1ccc(N(CC(=O)Nc2ccccc2OC)S(=O)(=O)c2ccc(NC(C)=O)cc2)cc1,,"0.164 µM [falling, partial curve, poor fit]",
O=C1NC(=NCc2ccccc2)S/C1=C/c1ccc(O)cc1,12.9,,
CN1CCN(CC(O)c2ccccc2)CC1 (stereo not drawn),12.6,,
CCOC(=O)c1c(NC(=O)c2ccccc2)sc2c(O)c(CN(CC)CC)ccc12,-1,"0.517 µM [rising, single point]","0.00411 µM [falling, full curve, poor fit]"
CCn1c2ccccc2c2cc(NC(=O)CSc3nnc(-c4ccc(OC)c(OC)c4)n3N)ccc21,-29.9,,"14.6 µM [falling, partial curve]"
Cc1ccc(SCc2c(C(=O)N/N=C/c3ccoc3)nnn2-c2nonc2N)cc1,-5.73,,"1.3 µM [falling, full curve, poor fit]"
CCCc1ccc2oc(C(=O)N(Cc3nccn3C)C(C)C)c(C)c2c1,-0.612,,
O=C(COC(=O)CNS(=O)(=O)c1ccc(Br)cc1Cl)NC1CC1,-5.19,,"0.184 µM [falling, full curve, poor fit]"
Cc1cccn2c(=O)c3cc(C(=O)NC(C)c4ccccc4)c(=N)n(CCCn4ccnc4)c3nc12 (stereo not drawn),1.59,"3.26 µM [falling, single point]","6.51 µM [falling, single point]"
CC(C)(C)CC(=O)Nc1cccc2c1CCCC2,-63.3,"32.6 µM [falling, single point]","29.1 µM [falling, single point]"
CN(C)c1cccc(C(=O)N/N=C/c2ccccc2F)c1,,,"2.06 µM [rising, partial curve, poor fit]"
O=C(CSc1cn(CCNC(=O)c2cccs2)c2ccccc12)NCc1ccccc1,10.6,,"29.1 µM [falling, single point]"
CCOc1ccc(NC(=O)CN(C)C(=O)c2ccccc2Cc2ccccc2)cc1OCC,-21,,
COCCn1c(SCC(=O)c2ccc3c(c2)OCCO3)nnc1C(C)C,,"0.116 µM [falling, full curve, poor fit]","2.31 µM [falling, partial curve, poor fit]"
Cc1cc(C)cc(NC(=O)c2ccc(NC(=O)c3ccco3)cc2)c1,-53.2,"11.6 µM [falling, partial curve]","18.4 µM [falling, single point]"

# Shown tab-delimited: 3 of the compounds above.
Structure (SMILES)	cell number change [%]	AC50 [1]	AC50 [2]
COc1ccc(N(CC(=O)Nc2ccccc2OC)S(=O)(=O)c2ccc(NC(C)=O)cc2)cc1		0.164 µM [falling, partial curve, poor fit]	
O=C1NC(=NCc2ccccc2)S/C1=C/c1ccc(O)cc1	12.9		
CN1CCN(CC(O)c2ccccc2)CC1 (stereo not drawn)	12.6		

# The listing continues.

Structure (SMILES),cell number change [%],AC50 [1],AC50 [2]
Cc1ccc(S(=O)(=O)Nc2nnc(C(C)(C)C)s2)cc1,28.8,,"23.1 µM [rising, single point]"
CCCC(=O)c1c[nH]c(C(=O)NCCc2ccccn2)c1,-17.1,,"5.17 µM [falling, single point]"
Cc1ccccc1Cn1c(C)cc(C)c(C#N)c1=O,-35.7,"0.92 µM [falling, full curve]","0.58 µM [falling, full curve]"
COc1ccc(CNC(=O)CSc2nnc(C3CC3)n2C2CC2)cc1,0.908,,
COc1ccccc1OCC(=O)Nc1cccc(N(C)S(C)(=O)=O)c1,28.7,,"3.66 µM [rising, partial curve, poor fit]"
C1=C(CCNc2ncnc3c2cnn3-c2ccccc2)CCCC1,-47.3,"25.9 µM [falling, single point]",
CC(=O)c1cccc(NC(=O)C2C3C=CC(C4CC34)C2C(=O)O)c1 (stereo not drawn),24,,"3.26 µM [falling, single point]"
COc1ccc(C=O)c2[nH]c3c(Cl)ncnc3c12,-5.56,,
CC(=O)CCc1c(C)nc2ccc(C)cc2c1Cl,39.1,"3.66 µM [rising, full curve, poor fit]","0.116 µM [rising, full curve, poor fit]"
Cn1c(=O)c(=O)n(C)c2cc(S(=O)(=O)NCCN3CCN(c4ccccc4F)CC3)ccc21,2.36,"0.82 µM [rising, single point]",
CCOC(=O)CN1CC23C=CC(O2)C(C(=O)O)C3C1=O (stereo not drawn),7.86,,"1.46 µM [falling, partial curve, poor fit]"
CCN(CC)c1ccc(/C=N/N2C(=O)c3ccccc3C2=O)cc1,14.8,,"1.3 µM [falling, full curve]"
CC(=O)Oc1ccc2nc(CN3C(=O)c4ccc([N+](=O)[O-])cc4C3=O)oc(=O)c2c1,15.4,,"2.31 µM [falling, single point]"
CCOC(=O)c1ccccc1NC(=O)CN(c1ccccc1OCC)S(C)(=O)=O,0.129,,"1.84 µM [rising, full curve]"
CCN(C(=O)COC(=O)c1cc(S(=O)(=O)N(C)C)ccc1Cl)C1CCS(=O)(=O)C1 (stereo not drawn),1.76,,"29.1 µM [rising, single point]"
S=C(Nc1ccc(Br)cc1)NC1CCN(Cc2ccccc2)CC1,-37.6,"25.1 µM [falling, single point]",
CCc1ccc(S(=O)(=O)Nc2ccc(Cl)cn2)cc1,33.3,,
O=C(Cn1cc(C(F)(F)F)cc(Cl)c1=O)NCc1ccccc1,27,"0.00651 µM [rising, full curve, poor fit]","0.58 µM [rising, single point]"
CC1CCCCN1CCCNc1ccc(C(CC(N)=O)NC(=O)Cc2ccc(Cl)cc2)cc1[N+](=O)[O-] (stereo not drawn),17.1,"4.11 µM [rising, partial curve, poor fit]","6.51 µM [rising, single point]"
Cc1cc(=O)[nH]c2c(C)cc(S(=O)(=O)Nc3ccc(O)cc3)cc12,-8.14,,"6.51 µM [rising, single point]"
CN(Cc1ccccc1)c1nc(N)c([N+](=O)[O-])c(Nc2cccc(F)c2)n1,,"2.59 µM [rising, partial curve]","18.4 µM [rising, partial curve]"

Structure (SMILES),cell number change [%],AC50 [1],AC50 [2]
COc1ccc(NC(=O)CNC(=O)Cn2cnc3sc(C)c(C)c3c2=O)cc1OC,-9.44,,"6.51 µM [rising, single point]"
CCN(CC)S(=O)(=O)c1ccc(N2CCCC2)c(NC(=O)CC(C)(C)C)c1,13.8,"2.06 µM [rising, partial curve, poor fit]",
COc1ccc(OC)c(/C=N/NC(=O)c2cc3c(OC)c(OC)ccc3[nH]2)c1,-33.6,,"2.31 µM [rising, partial curve]"
COc1ccc(CC(=O)OCc2nnc(-c3ccccc3)o2)cc1,3.95,,
COc1ccc(/C=C2\CCc3ccccc3C2=O)cc1Cn1cccn1,123,"9.2 µM [rising, partial curve]","18.4 µM [rising, partial curve]"
CC(Oc1ccccc1)C(=O)Nc1nnc(S(=O)(=O)Nc2ccccc2)s1 (stereo not drawn),1.8,,
CCOc1ccc(Br)cc1/C=N/NC(=O)c1ccncc1,-65.1,"32.6 µM [falling, single point]",
O=C(Nc1ccc(Cc2ccncc2)cc1)c1ccc(S(=O)(=O)N2CCOCC2)cc1,2.23,,
Clc1ccc(-c2nc3ncccn3c2Cl)cc1,35.7,"7.31 µM [rising, partial curve]",
CCn1nc(C(=O)OC2CCOC2=O)c2ccccc2c1=O (stereo not drawn),-27.2,"0.291 µM [falling, full curve, poor fit]","11.6 µM [falling, partial curve]"
Cc1cc(=O)[nH]c(SCCCOc2ccc3c(c2)CCC3)n1,88.3,"18.4 µM [rising, partial curve]",
CC(Sc1nc2ccccc2c(=O)n1CC1CCCO1)C(=O)N(C)Cc1ccccc1 (stereo not drawn),-39.6,"29.1 µM [falling, single point]",
CC(=O)c1cccc(OCC(=O)c2cc(C)n(-c3cc(C)on3)c2C)c1,-48.2,"32.6 µM [falling, single point]","29.1 µM [falling, single point]"
O=C(COC(=O)COc1ccccc1)NCc1ccco1,0.113,,"11.6 µM [rising, partial curve]"
COc1cccc(CNC(=O)C2CCN(S(=O)(=O)c3ccc4c(c3)NC(=O)C(C)S4)CC2)c1 (stereo not drawn),-14.9,,
CCOC(=O)Cc1csc(NC(=O)CSc2nnc(-c3ccc(F)cc3)o2)n1,2.12,,
O=C(N/C(=C\c1ccccc1)C(=O)N1CCCCC1)c1ccco1,-19,,"29.1 µM [rising, single point]"
COc1ccccc1OCC(=O)Nc1cccc(C(=O)N2CCOCC2)c1,0.135,,"0.259 µM [rising, full curve, poor fit]"
COc1ccc(CCNC(=O)C(=O)NCC2OCCN2S(=O)(=O)c2ccc(Br)cc2)cc1OC (stereo not drawn),-24.8,"0.0291 µM [falling, full curve, poor fit]","20.6 µM [falling, partial curve, poor fit]"
